Test: Quantification of the chalkiness compound isomers in brewed coffee by standard addition (MRM)
Conditions: for Concentration HB Coffee: high body (HB) coffee, body score=7.5; for Concentration LB Coffee: low body (LB) coffee, body score=4.8
Text: In preparation for sensory validation, ((2R,5S)-2-isobutyl-3,8,dioxo-1,4-diazocane-5-carbonyl)-L-tryptophyl-L-histidine was quantified using standard addition in both the high body coffee (body score=7.5), as well as in the lowest body coffee from the original sample set (body score=4.8) (Table 3).

Row | Substance | Concentration HB Coffee [mg/L] | Concentration LB Coffee [mg/L]
1 | ((2R,5S)-2-isobutyl-3,8,dioxo-1,4-diazocane-5-carbonyl)-L-tryptophyl-L-histidine [Isomer 1] | 0.366 | 0.03
2 | ((2R,5S)-2-isobutyl-3,8,dioxo-1,4-diazocane-5-carbonyl)-L-tryptophyl-L-histidine [Isomer 2] | 0.477 | 0.03

Reference: patent publication US20250214975A1, “PEPTIDYL FLAVOR MODIFIERS” (Ohio State Innovation Foundation, priority 2022, published 2025)
